Assay results as given in PMC6316800.
These are yes or no findings as the source states them, for the method shown. Binding seen in cells or lysates may run through a third protein. Here binding means that the protein was enriched with, or labelled near, the bait; the list need not be complete.

Amino acid sequences for entries named in this document (tags omitted).
UniProt P03496: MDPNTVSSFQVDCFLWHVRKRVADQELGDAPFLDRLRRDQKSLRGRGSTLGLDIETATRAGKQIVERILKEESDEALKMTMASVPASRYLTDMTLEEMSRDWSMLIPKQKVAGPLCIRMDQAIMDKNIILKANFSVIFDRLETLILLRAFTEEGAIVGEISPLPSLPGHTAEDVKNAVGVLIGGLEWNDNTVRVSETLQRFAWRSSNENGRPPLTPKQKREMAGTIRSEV

Target: Influenza A virus non-structural protein 1 (NS1), strain A/Puerto Rico/8/1934(H1N1) (Influenza A virus A/Puerto Rico/8/1934(H1N1)) (UniProt P03496)
Assay: affinity purification with mass spectrometry

Row | Binder | binding
1 | Ankycorbin (protein, UniProt Q9P0K7 1-980) MKSLKAKFRKSDTNEWNKNDDRLLQAVENGDAEKVASLLGKKGASATKHDSEGKTAFHLAAAKGHVECLRVMITHGVDVTAQDTTGHSALHLAAKNSHHECIRKLLQSKCPAESVDSSGKTALHYAAAQGCLQAVQILCEHKSPINLKDLDGNIPLLLAVQNGHSEICHFLLDHGADVNSRNKSGRTALMLACEIGSSNAVEALIKKGADLNLVDSLGYNALHYSKLSENAGIQSLLLSKISQDADLKTPTKPKQHDQVSKISSERSGTPKKRKAPPPPISPTQLSDVSSPRSITSTPLSGKESVFFAEPPFKAEISSIRENKDRLSDSTTGADSLLDISSEADQQDLLSLLQAKVASLTLHNKELQDKLQAKSPKEAEADLSFDSYHSTQTDLGPSLGKPGETSPPDSKSSPSVLIHSLGKSTTDNDVRIQQLQEILQDLQKRLESSEAERKQLQVELQSRRAELVCLNNTEISENSSDLSQKLKETQSKYEEAMKEVLSVQKQMKLGLVSPESMDNYSHFHELRVTEEEINVLKQDLQNALEESERNKEKVRELEEKLVEREKGTVIKPPVEEYEEMKSSYCSVIENMNKEKAFLFEKYQEAQEEIMKLKDTLKSQMTQEASDEAEDMKEAMNRMIDELNKQVSELSQLYKEAQAELEDYRKRKSLEDVTAEYIHKAEHEKLMQLTNVSRAKAEDALSEMKSQYSKVLNELTQLKQLVDAQKENSVSITEHLQVITTLRTAAKEMEEKISNLKEHLASKEVEVAKLEKQLLEEKAAMTDAMVPRSSYEKLQSSLESEVSVLASKLKESVKEKEKVHSEVVQIRSEVSQVKREKENIQTLLKSKEQEVNELLQKFQQAQEELAEMKRYAESSSKLEEDKDKKINEMSKEVTKLKEALNSLSQLSYSTSSSKRQSQQLEALQQQVKQLQNQLAECKKQHQEVISVYRMHLLYAVQGQMDEDVQKVLKQILTMCKNQSQKK | binds
2 | RNA-binding protein 14 (protein, UniProt Q96PK6 1-669) MKIFVGNVDGADTTPEELAALFAPYGTVMSCAVMKQFAFVHMRENAGALRAIEALHGHELRPGRALVVEMSRPRPLNTWKIFVGNVSAACTSQELRSLFERRGRVIECDVVKDYAFVHMEKEADAKAAIAQLNGKEVKGKRINVELSTKGQKKGPGLAVQSGDKTKKPGAGDTAFPGTGGFSATFDYQQAFGNSTGGFDGQARQPTPPFFGRDRSPLRRSPPRASYVAPLTAQPATYRAQPSVSLGAAYRAQPSASLGVGYRTQPMTAQAASYRAQPSVSLGAPYRGQLASPSSQSAAASSLGPYGGAQPSASALSSYGGQAAAASSLNSYGAQGSSLASYGNQPSSYGAQAASSYGVRAAASSYNTQGAASSLGSYGAQAASYGAQSAASSLAYGAQAASYNAQPSASYNAQSAPYAAQQAASYSSQPAAYVAQPATAAAYASQPAAYAAQATTPMAGSYGAQPVVQTQLNSYGAQASMGLSGSYGAQSAAAATGSYGAAAAYGAQPSATLAAPYRTQSSASLAASYAAQQHPQAAASYRGQPGNAYDGAGQPSAAYLSMSQGAVANANSTPPPYERTRLSPPRASYDDPYKKAVAMSKRYGSDRRLAELSDYRRLSESQLSFRRSPTKSSLDYRRLPDAHSDYARYSGSYNDYLRAAQMHSGYQRRM | binds
3 | UPF0027 protein C22orf28 (protein, UniProt Q9Y3I0 1-505) MSRSYNDELQFLEKINKNCWRIKKGFVPNMQVEGVFYVNDALEKLMFEELRNACRGGGVGGFLPAMKQIGNVAALPGIVHRSIGLPDVHSGYGFAIGNMAAFDMNDPEAVVSPGGVGFDINCGVRLLRTNLDESDVQPVKEQLAQAMFDHIPVGVGSKGVIPMNAKDLEEALEMGVDWSLREGYAWAEDKEHCEEYGRMLQADPNKVSARAKKRGLPQLGTLGAGNHYAEIQVVDEIFNEYAAKKMGIDHKGQVCVMIHSGSRGLGHQVATDALVAMEKAMKRDKIIVNDRQLACARIASPEGQDYLKGMAAAGNYAWVNRSSMTFLTRQAFAKVFNTTPDDLDLHVIYDVSHNIAKVEQHVVDGKERTLLVHRKGSTRAFPPHHPLIAVDYQLTGQPVLIGGTMGTCSYVLTGTEQGMTETFGTTCHGAGRALSRAKSRRNLDFQDVLDKLADMGIAIRVASPKLVMEEAPESYKNVTDVVNTCHDAGISKKAIKLRPIAVIKG | binds
